System: Wistar rats
Experiment: diuretic effect
Assay type: in vivo
Conditions: 25 mg/kg oral, urine collected for 6 hours, relative to control
Description: Wistar rats (male: 150 - 300 g) were starved for 18 hours prior to the administration of the test compounds. […] Urine was collected for 6 hours after the administration. Urine volume was measured and the electrolytes (Na+ and K+) in the urine were determined with a flame photome[…], Hitachi Ltd., Japan). All parameters are expressed as relative values of control.

NS(=O)(=O)c1cc(C(=O)O)c(NCc2ccco2)cc1Cl [Furosemide, reference compound] was tested. Which “Increase in K⁺ excretion (%)” value did it give?
The value was 57%.

And the “Increase in Na⁺excretion (%)” value?
The value was 64%.

— EP0415456A2, “Xanthine compounds” (priority 1989, dated 1991)
